According to PubChem BioAssay AID1307 (SRMLSC, 2008):
Hit rate of the full screen: of about 1,200 compounds, fewer than 10 were called active.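 Rule for the calls: active = inhibition reaching a set limit at one or more tested concentrations; inactive = inhibition under that limit at every dose.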 This is one part of the list. Measured potencies and affinities stand elsewhere.

Test: yeast RAM network inhibitors, dose response, S. cerevisiae (AID 1307);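 note: 0% = DMSO vehicle wells and 100% = 10 µM 1-NA-PP1 control; higher inhibition means more yeast growth since RAM block rescues cells from 5-FOA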
Details: S. cerevisiae RAM network URA3 reporter, 5-FOA growth OD615, hits give high values, yeast express analog-sensitive mutant Cbk1 kinase; at 100 µM unless noted

Max inhibition, inactive:
COc1ccc(N=C2S/C(=C\c3ccc(C)s3)C(=O)N2CC(C)C)cc1 4.62% [at 50 µM], C/C(=N\Nc1nc2c(s1)CCCC2)c1ccc(Cl)cc1 3.46% [at 1.563 µM], COc1ccc(-c2nc3ccccc3c(=O)n2CCOc2ccc(C)cc2C)cc1 4%, Cc1cccc(CSCCNC(=O)c2ccc(N(C)S(=O)(=O)c3ccccc3)cc2)c1 4%, COc1cccc(C(=O)/C=C/c2ccc(N3CCCCC3)c([N+](=O)[O-])c2)c1 4.24%, CCOCCCNC(=S)N1CCCN(c2nc3c(C)c(C)ccc3cc2C#N)CC1 6.21%, O=C(NCc1ccccc1)C1=C[C@H](c2ccc(C(F)(F)F)cc2)C[C@H](OCc2ccc(CO)cc2)O1 2.75% [at 6.25 µM], CCCN(CCC)c1nc2ccccc2nc1C(C#N)C(=O)OC(C)COC (centres undefined) 2.6%, O=S(=O)(NCCSCc1ccc(Cl)cc1Cl)c1ccc2c(c1)OCCO2 2.05% [at 12.5 µM], C/C(N)=C(/C#N)C(=O)CSc1nc2ccccc2c(=O)n1-c1ccc(C)c(Cl)c1 8.31%, CN1C(=O)/C(=C/c2ccccc2OCc2cccc(F)c2)NC1=S 9.68%, Cc1ccc(S(=O)(=O)N2c3cc(C)ccc3OCC2C(C)(C)C)cc1 (centres undefined) 3.04%, Cc1ccccc1C(=O)NC(=S)Nc1ccc(Oc2ccc(Cl)cc2)cc1 3.72% [at 50 µM], Cc1ccc(N2N=C(c3ccc(F)cc3)CC2c2ccco2)cc1 (centres undefined) 2.48% [at 0.391 µM], Cc1ccc(NC(=O)CCSc2nnnn2-c2ccc3c(c2)OCO3)cc1C 1.94% [at 0.196 µM], COc1ccc(/C=C/C(=O)c2ccccc2)cc1COc1ccc(F)cc1 4.52% [at 25 µM], Cc1ccccc1NC(=O)CCCSc1nc2ccccc2s1 1.4% [at 25 µM], CC(C)COc1ccc(/C=C2/Sc3ccccc3C2=O)cc1 5.31%, CCOc1ccc(-c2nnc3ccc(SCc4ccc(C(=O)OC)o4)nn23)cc1 2.44% [at 25 µM], Cc1ccc(CSc2nc3ccccc3c(=O)n2Cc2ccco2)cc1 3.33% [at 25 µM], Cn1c(=O)[nH]c(=O)c2c1nc(Sc1ccccc1)n2CCc1ccccc1 1.45% [at 0.782 µM], Cc1[nH]c2ccccc2c1/C=N/Nc1ccc([N+](=O)[O-])cc1S(=O)(=O)Nc1ccc(Cl)cc1 10.3%, Cc1ccc(C)c(C(=O)COC(=O)c2cc([N+](=O)[O-])ccc2NCCO)c1 1.46% [at 3.125 µM], O=C(/C=C/c1ccccc1)N1CCN(c2cccc(Cl)n2)CC1 6.02%, CCOC(=O)CSC1=C(C#N)C(c2ccco2)C(C(=O)OCc2ccccc2)=C(C)N1 (centres undefined) 4.53% [at 25 µM], CC(=O)Nc1ccc(S(=O)(=O)Nc2nc3ccccc3nc2-n2ccc(=NC(=O)c3ccc(F)cc3)cc2)cc1 9.72%, O=C(COC(=O)c1cc(-c2cccc(Br)c2)nc2ccccc12)NCC1CCCO1 (centres undefined) 1.34% [at 0.391 µM], COc1cccc(C(=O)CSc2nnc(-c3cc(OC)c(OC)c(OC)c3)o2)c1 3.92% [at 1.563 µM], O=C(CCCSc1nnc(SCCCC(=O)c2ccc(F)cc2)s1)c1ccc(F)cc1 4.44% [at 50 µM], COc1cccc(-c2csc3nnc(SCC(=O)NCc4cccs4)n23)c1 4.59%, COC(=O)c1c(NC(=O)c2ccccc2)sc(Cc2ccccc2)c1C 5.58% [at 50 µM], O=C(NCCc1ccccc1)c1c(O)c2cccc3c2n(c1=O)CC3 2.92% [at 50 µM], COn1c(SCc2ccccc2)nc2ccccc2c1=O 2.79% [at 1.563 µM], COc1ccc2c(C)cc(SCC(=O)c3ccc4c(c3)OCO4)nc2c1 4.01%, O=C(OCc1ccccc1F)c1ccc2c(c1)-c1ccccc1C2=O 8.99% [at 50 µM], CCOc1ccc2nc3c(cc2c1)CN(CCOC)C(=NCCOC)S3 4.45%, O=S(=O)(c1ccccc1F)N(Cc1ccco1)Cc1nnc(-c2ccccc2Br)o1 2.49% [at 1.563 µM], CCCOc1ccc(-c2nc(OCC)c3ccccc3n2)cc1 5.78% [at 50 µM], COc1cc(/C=C/C(=O)OCC(=O)Nc2ccccc2Sc2ccc(Cl)cc2)ccc1O 3.88%, COc1ccc(OC)c(NC(=O)CSCc2cnn(-c3ccccc3)c2-n2cccc2)c1 1.79% [at 3.125 µM], COc1ccc(C(=O)/C=C/c2ccc(OC)c(COc3ccccc3F)c2)cc1 3.26% [at 12.5 µM], COCCOC(=O)c1c(C)oc2ccc(OC(=O)c3c(OC)cccc3OC)cc12 2.82% [at 0.391 µM], C=CCn1c(SCc2csc(C)n2)nc2sc3c(c2c1=O)CCC(C)C3 (centres undefined) 2.88% [at 50 µM], Cc1ccc(CSCCNC(=O)c2ccc(N(C)S(=O)(=O)c3ccccc3)cc2)cc1 3.36% [at 50 µM], O=C(c1oc2ccccc2c1CSCc1ccccc1)N1CCN(c2ncccn2)CC1 2.29% [at 0.782 µM], COc1ccccc1-c1ccc(SCc2ccc([N+](=O)[O-])cc2)nn1 2.51% [at 3.125 µM], C=CCN(c1ccccc1Cl)S(=O)(=O)c1cccc(C(=O)NCCc2ccc(OC)cc2)c1 2.05% [at 12.5 µM], COc1ccc(/C=C2\SC(=O)N(CCC(=O)Nc3ccccc3)C2=O)cc1OC 3.41%, COc1cc(NS(=O)(=O)c2ccc(Nc3nc(-c4ccccc4)cs3)cc2)nc(OC)n1 22%, CN(CCOc1ccccc1)S(=O)(=O)c1ccc2oc3ccccc3c2c1 3.54% [at 0.391 µM], Cc1ccc(C(=O)C(OC(=O)COc2ccccc2C)c2ccccc2)cc1 (centres undefined) 3.49% [at 50 µM], COc1ccc(/C=N/OCC(=O)NC(c2ccccc2)c2ccccc2)c(OC)c1 3.42%, COc1ccc(CCNC(=O)c2ccc(-c3ccc([N+](=O)[O-])cc3Cl)o2)cc1 4.1%, COc1ccccc1-c1cc(C(F)(F)F)nc(N2CCN(c3ccccc3)CC2)n1 4.49%, Cc1cc(OCc2nnc(SCC(=O)OC3CCCCC3)o2)ccc1Cl 2.07% [at 0.391 µM], COc1ccc(C(=O)COC(=O)C(CCSC)NS(=O)(=O)c2ccc(Cl)cc2)cc1 (centres undefined) 2.78% [at 25 µM], O=C(CSc1nnc(-c2cccc(S(=O)(=O)N3CCCCC3)c2)o1)NCCC1=CCCCC1 14%, COc1ccc(CNc2oc(Cc3cccc4ccccc34)nc2C#N)cc1 2.77% [at 0.782 µM], COc1cccc(-c2cc(C(=O)Nc3ccn(Cc4ccc(C)cc4)n3)no2)c1 3.29%, Cc1ccc(C(=O)CSc2nnc(COc3cc(C)cc(C)c3)o2)cc1 4.29% [at 25 µM], Cc1cccc(/C=C\c2nc3ccccc3c(=O)[nH]2)c1 4.62%, N#Cc1cc(-c2ccc(Cl)cc2)cnc1Sc1ccc(F)cc1 2.38% [at 25 µM], CCS(=O)(=O)c1ccc(-c2csc(-c3ccc(Cl)cc3)n2)c(Cl)c1Cl 1.92% [at 50 µM], Nc1nc(-c2ccccc2)c(N=Nc2cccnc2)s1 4.8%, O=C(CCC(=O)c1ccc(Oc2ccccc2)cc1)Nc1cccc(Cl)c1Cl 3.23% [at 25 µM], COc1cccc(NC(=O)CSc2nnc(COc3ccc4c(c3)CCCC4)o2)c1 2.82%, Fc1ccc(N2CCN(c3nc(-c4ccco4)cc(C(F)(F)F)n3)CC2)cc1 3.18% [at 0.782 µM], COc1ccc(-n2nnc3c(SCC(=O)OCc4ccccc4)ncnc32)cc1 2.88% [at 50 µM], O=C(CSc1cccc(C(F)(F)F)c1)Nc1cc(S(=O)(=O)N2CCCC2)ccc1Cl 2.33% [at 0.782 µM], COc1ccc(C)cc1N1C(=N)/C(=C2/Nc3ccccc3S2)C(c2ccccc2)C1=O (centres undefined) 13.5%, CCOC(=O)Cc1csc(NC(=O)NC2(C(F)(F)F)Oc3ccccc3O2)n1 1.09% [at 0.782 µM], CCCOc1ccc(CC(=O)NNC(=S)Nc2ccccc2)cc1Br 2.27% [at 6.25 µM], Cc1ccc(CNC(=O)CNC(=S)N(Cc2ccccc2)Cc2ccccc2F)cc1 3.76% [at 12.5 µM], CC(C)CC1=NN2C(=N)/C(=C\c3coc4ccccc4c3=O)C(=O)N=C2S1 3.4% [at 0.196 µM], CCN=C1S/C(=C\c2cc(Br)ccc2OCC(=O)OCC)C(=O)N1CC 2.27% [at 3.125 µM], COc1nc2ccc(C)cc2cc1-c1noc(-c2ccccc2)n1 3.02% [at 25 µM], COC(=O)c1ccccc1NC(=O)c1cccc(COc2ccccc2Cl)c1 5.66%, COc1ccc(/C=C/C(=O)c2sc(-c3ccccc3)nc2C)cc1 2.67% [at 50 µM], CCC(C)(C)c1ccc(Oc2ccc(NC(=O)COC(=O)C3=COCCO3)cc2)cc1 3.38% [at 12.5 µM]
